These results are taken from patent US4035397A, “Polyfluoro acid anthraquinone dyestuffs their preparation and their use” (Produits Chimiques Ugine Kuhlmann, priority 1973, dated 1977).

Where a name gives a salt, the structure may show the parent alone.

Data set [1] in a line: dyeing of nylon (satin) and fastness of the dyed fabric. Particulars: for fastness to water / fastness to washing: dyed nylon; for fastness to washing: Example 7: severe washing. The procedure: 100 parts of "nylon" satin are steeped in a bath containing 3000 parts of water and 1 part of a wetting agent based on oxyethylenated fatty alcohol for 10 minutes at 40° C., then 0.5 to 2 parts of 80% acetic acid are added so as to obtain a pH of 4-5. 1 part of the above-mentioned dyestuff finely dispersed and which has been previously made into a paste in a little water is added. Dyeing commences at 500° C., the mixture is brought to boiling point in three-quarters of an hour whilst maintaining a level for a quarter of an hour at 75° C. and boiling is maintained for approximately one and a half hours.

A short description of data set [2]: dyeing of Rilsan fibres and fastness of the dyed fibre. The procedure: In accordance with the process of Example 1, 100 parts of "Rilsan" fibres are steeped in 3000 parts of water, the pH is brought to 6-7 by the addition of crystallised ammonium acetate and 0.5 parts of the above dyestuff is added. After dyeing for one and a half hours at boiling point and rinsing, a reddish-blue colouration is obtained which is very fast to water and washing.

`Nc1c(S(=O)(=O)O)cc(Nc2ccc(OC(F)(F)F)cc2)c2c1C(=O)c1ccccc1C2=O` [Example 1, sodium salt of 1-amino-4-(paratrifluoromethoxy-anilino)-anthraquinone-2-sulphonic acid]: in data set [1], the fastness to water entry is listed as “very good”, the fastness to washing result is on record as “very good” and the shade on nylon result was “bright reddish-blue”. For the same compound, in data set [1] (dyed nylon satin), the fastness to light entry was “very good” and the fastness to perspiration entry is recorded as “very good”.
With `Nc1c(S(=O)(=O)O)cc(Nc2cccc(OC(F)(F)F)c2)c2c1C(=O)c1ccccc1C2=O` [Example 2], in data set [1], the shade on nylon entry was “bright reddish-blue”.
Consider `O=C1c2ccccc2C(=O)c2c(Nc3ccc(OC(F)(F)F)cc3S(=O)(=O)O)ccc(Nc3ccc(OC(F)(F)F)cc3S(=O)(=O)O)c21` [Example 3], for which, in data set [1], the fastness to water entry is given as “excellent”, the fastness to washing entry was “excellent” and the shade on nylon result was “greenish-blue”.
`CNc1ccc(Nc2ccc(OC(F)(F)F)cc2S(=O)(=O)O)c2c1C(=O)c1ccccc1C2=O` [Example 4, sodium salt of 1-methylamino-4'-trifluoromethoxy-4anilino-anthraquinone-2'-sulphonic acid]: the “shade on Rilsan” value in data set [2] is on record as “reddish-blue”. Also, in data set [2] (dyed Rilsan), the fastness to washing entry is “very fast” and the fastness to water result is “very fast”.
As to `CNc1ccc(Nc2ccc(S(=O)(=O)O)cc2OC(F)(F)F)c2c1C(=O)c1ccccc1C2=O` [Example 5], in data set [2], the “shade on Rilsan” value was “reddish-blue”. Besides, the “fastness to wet tests” value in data set [2] (dyed Rilsan) was “very fast”.
As for `O=C1c2ccccc2C(=O)c2c(NC3CCCCC3)ccc(Nc3ccc(OC(F)(F)F)cc3S(=O)(=O)O)c21` [Example 6, 1-cyclohexylamino-4-(2-sulpho-4-trifluromethoxyanilino)-anthraquinone (sodium salt)], in data set [1], the fastness to water entry is “remarkably fast”, the fastness to washing result was “remarkably fast” and the shade on nylon entry was “reddish-blue”.
As to `COc1ccc(Nc2cc(S(=O)(=O)O)c(N)c3c2C(=O)c2ccccc2C3=O)cc1` [reference compound], the shade on nylon entry in data set [1] is “greenish-blue”.
On the same count and under the same terms, with `COc1ccc(Nc2ccc(Nc3ccc(OC)cc3S(=O)(=O)O)c3c2C(=O)c2ccccc2C3=O)c(S(=O)(=O)O)c1` [reference compound] the entry was “green”; with `COc1ccc(Nc2ccc(NC3CCCCC3)c3c2C(=O)c2ccccc2C3=O)c(S(=O)(=O)O)c1` [reference compound], “greenish-blue”.
